Reference: PubChem BioAssay AID1508597 (Cure First, 2020)

- Test: 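Genes whose silencing sensitises or protects ovarian cancer cells against rucaparib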 (primary screen)
- Cell system: human ovarian carcinoma lines grown from tumours: OCI-P5x (papillary serous) and OCI-C5x (clear cell)
- Reagents: siRNA pool against human genes, 1.25 pmol siRNA per well
- Timing: 72 h or 96 h, depending on the cell culture
- Treatment: rucaparib 20 µM (about IC30) or vehicle, present until read-out
- Rucaparib or vehicle: Vehicle
- Cell line: OCI-P5x (serous)
- Detection: 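Luminescent ATP-based viability assay read 72 or 96 h after transfection, depending on culture, given as normalised percent viability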
- Reading the numbers: viability, normalised: higher = more viable cells remaining
- Hit rule: 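Active when normalised viability falls below 80 percent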
- Calls: active = viability under 80%; inactive = viability 80% or more
Shown is an unselected part of the about 2,100 reagents, under one of the conditions tested. 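Calls flag viability under 80% in either arm, not effects specific to rucaparib; the reference for percent is not stated.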 Unmarked entries are inactive. Some reagents were tested in more than one well and are listed for each. Not given: the 100% reference.

target,technical replicate,"viability, normalised (%)"
MCM2,1,59.5 (active)
MCM2,2,34.3 (active)
MCM2,3,45.5 (active)
CSMD3,1,90.7
CSMD3,2,89
CSMD3,3,82.6
NONO,1,59.8 (active)
NONO,2,81.8
NONO,3,79 (active)
CHMP1A,1,73.1 (active)
CHMP1A,2,67.1 (active)
CHMP1A,3,83
ABCC1,1,96.1
ABCC1,2,78.6 (active)
ABCC1,3,91.6
RPS6KB2,1,80.2
RPS6KB2,2,86.5
RPS6KB2,3,82.4
TDRD6,1,89.9
TDRD6,2,96.1
TDRD6,3,91.5
PDCD2L,1,71 (active)
PDCD2L,2,69.4 (active)
PDCD2L,3,79.6 (active)
HDAC1,1,59.3 (active)
HDAC1,1,82.4
HDAC1,2,80.5
HDAC1,2,60.2 (active)
HDAC1,3,89
HDAC1,3,80.2
CDK7,1,54.6 (active)
CDK7,1,96.7
CDK7,2,103
CDK7,2,66.5 (active)
CDK7,3,78.5 (active)
CDK7,3,103
H4C5,1,76.2 (active)
H4C5,2,66.6 (active)
H4C5,3,70.5 (active)
PDE6C,1,62.5 (active)
PDE6C,2,61.6 (active)
PDE6C,3,46.2 (active)
SCYL2,1,83.2
SCYL2,2,70.1 (active)
SCYL2,3,68.9 (active)
PDE8B,1,58.1 (active)
PDE8B,2,64.4 (active)
PDE8B,3,65.7 (active)
BAK1,1,66.4 (active)
BAK1,2,74.3 (active)
BAK1,3,94.1
PARP14,1,61.7 (active)
PARP14,2,60.5 (active)
PARP14,3,76.1 (active)
PANK3,1,61.5 (active)
PANK3,2,48.2 (active)
PANK3,3,39 (active)

Entries listed so far whose gene name begins with R or r:
target,technical replicate,"viability, normalised (%)"
RPS6KB2,1,80.2
RPS6KB2,2,86.5
RPS6KB2,3,82.4
